The whole screen tested about 140,000 compounds, of which about 4,300 (3.1%) were called active. Inconclusive means that the source gave no clear call. Such entries were picked first, then a sample of the others.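 How the source made its calls: active means readout at or below -70, meaning at least 70% loss of cells showing the perinucleolar compartment, a nuclear body marking cancer cells; inconclusive means readout between -30 and a set limit; inactive means the rest.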
Assay: High Content Assay for Compounds that inhibit the Assembly of the Perinucleolar Compartment;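 further: plate controls were DMSO wells for no effect and camptothecin positive control wells for full effect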
Settings: PC3M PTB-GFP, PNC prevalence imaging, 16 h; at 10 µM; stronger effect = lower value
Outline: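 Compounds are pinned in duplicate onto adhered PC3M cells stably expressing GFP-tagged PTB and incubated 16 h at 37 C. Cells are then fixed, nuclei stained with Hoechst, and PNC-positive cells counted.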

Structure (SMILES)	activity change (PNC), negative = inhibition
Nc1nc2n(n1)C(c1ccco1)CC(c1ccc(F)cc1)N2 (configuration not stated)	inconclusive: -37.4%
COc1ccccc1NC(=O)c1nnn(Cc2ccccc2)c1NC(=O)C(F)(F)F	inconclusive: -37.6%
CC1CCN(C(c2cc3cc4c(cc3[nH]c2=O)OCO4)c2nnnn2CC2CCCO2)CC1 (configuration not stated)	inconclusive: -45.9%
CC(=O)c1cccc(NS(=O)(=O)c2c(C)n[nH]c2C)c1	inconclusive: -51.9%
Cc1ccc(N(CC(=O)NCCc2ccc(F)cc2)S(=O)(=O)c2ccc(Cl)c([N+](=O)[O-])c2)c(C)c1	inconclusive: -59.8%
O=C(c1ccc(COc2ccccc2Br)o1)N1CCCCCC1	inactive: 26.2%
O=C(CSc1nc2ncccc2[nH]1)c1cccc([N+](=O)[O-])c1	active: -113%
COc1ccc(OC)c(-c2cc(C(=O)NCCCn3ccnc3)no2)c1	inconclusive: -49.4%
COCCNC(=O)Cc1ccc(Br)cc1	inconclusive: -70.8%
CCOC(=O)c1cnn2c1[nH]c(=O)c1ccccc12	inconclusive: -32.4%
CC(=O)NS(=O)(=O)c1cccnc1Nc1ccc(Cl)cc1	inconclusive: -66.4%
CC(C)CNS(=O)(=O)c1ccc(OCC(=O)Nc2ccc(F)cc2F)cc1	active: -82.7%
COc1ccc(C(CC(=O)O)NC(C)=O)cc1OC (configuration not stated)	inconclusive: -41.1%
CCC(CC)NC(=O)COC(=O)c1ccc(OCc2ccc(C(C)=O)cc2OC)c(OC)c1	inconclusive: -58.7%
O=C(NCCCCNC(=O)C1CCCC1)C1CCCC1	inactive: 45.3%
Cc1cccc(-n2nnc(C(=O)NCc3ccccn3)c2N)c1	inconclusive: -67.3%
Cc1ccc(OC(=O)C2c3ccccc3Oc3ccccc32)cc1C	inactive: 43.9%
COc1cccc2cc(C(=O)N3CCCCC3C)c(=O)oc12 (configuration not stated)	inactive: 138%
Clc1c(-c2ccccc2)nnn1-c1ccccc1	inactive: -9.97%
CC(=O)NC1=NC(=O)/C(=C/N2CCCCC2)S1	inconclusive: -51.4%
COC(=O)/C(=N/Nc1ccccc1)N1CCCc2ccccc21	inconclusive: -76.3%
O=C(NCc1ccc(Cl)cc1)c1ccccc1Oc1ccccc1	inactive: -21.8%
Cc1ccnc(NC(=S)NC(=O)/C=C/c2ccco2)c1	inconclusive: -60.3%

Structure (SMILES)	activity change (PNC), negative = inhibition
Cc1cc([N+](=O)[O-])nn1CC(=O)NNC(=S)Nc1ccc([N+](=O)[O-])cc1	inactive: 45.7%
O=C(CSc1ccc2ccccc2c1)Nc1nc2ccccc2[nH]1	inconclusive: -35.1%
CC1=CC(C)C2C(=O)N(c3ccccc3)NC(=O)C2C1 (configuration not stated)	inactive: 5.6%
CN(C)c1ccc(NC(=O)c2sc(SCC(=O)Nc3ccc(Br)cc3)nc2N)cc1	inconclusive: -50.6%
COc1ccc(OC)c(NC(=O)c2cc(S(=O)(=O)NCc3ccco3)ccc2F)c1	inactive: -26.4%
NS(=O)(=O)c1ccc(CCNc2ncnc3sccc23)cc1	inconclusive: -32.7%
O=C(Nc1ccc(NC(=O)c2ccco2)nc1)c1cccnc1	active: -100%
Cc1cccn2c(=O)c(/C=C(\C#N)C(=O)NCc3ccco3)c(N3CCCC(C)C3)nc12 (configuration not stated)	inconclusive: -58.9%
COc1ccccc1NC(=O)CN1CCN(CC(=O)Nc2ccc(OCc3ccccc3)cc2)CC1	inactive: 49%
CC(C)c1nnc(NC(=O)c2sc3ccccc3c2Cl)s1	inactive: 0%
Cc1ccc(S(=O)(=O)/C(C#N)=C/c2c(N3CC(C)OC(C)C3)nc3ccccn3c2=O)cc1 (configuration not stated)	inactive: 28.7%
CC(C)CN(CC(C)C)c1nnc(N)s1	inactive: 34%
CCN(CC)c1ccc2cc(-c3nc4ccccc4n3C)c(=O)oc2c1	inconclusive: -77%
CS(=O)(=O)N1N=C(c2ccccc2)CC1c1ccc2c(c1)OCO2 (configuration not stated)	inactive: -27.3%
Cc1ccc(-c2nnc(SCC(=O)N3CCCc4ccccc43)n2N)cc1	inconclusive: -66.7%
N#Cc1c(NC(=O)C2CC(c3c(F)cccc3Cl)=NO2)sc2c1CCC2 (configuration not stated)	inconclusive: -39.5%
CCOC(=O)c1cc(C(=O)OCC)c2cc(Br)ccc2n1	inconclusive: -60.3%
O=C(CSc1nnc(CNC(=O)c2c(F)cccc2Cl)o1)Nc1ccc2c(c1)OCCO2	inconclusive: -52.7%
COc1ccc(NC(=O)c2sc(SCc3ccccc3)nc2N)cc1	inconclusive: -41.1%
Cc1ccc2c(c1)-c1c(cnn1CC(=O)Nc1ccccc1N1CCN(C)CC1)CO2	inconclusive: -32.5%
COc1ccc(N/C=C/C(=O)c2ccc3c(c2)OCO3)cc1OC	inactive: 0.417%
C=CCN(CC=C)CCOc1ccccc1F	inconclusive: -32.9%
CCOC(=O)C1CCCN(c2cc(NCCCO)c([N+](=O)[O-])c3nonc23)C1 (configuration not stated)	inconclusive: -32.1%

Copied from above for reference:
Structure (SMILES)	activity change (PNC), negative = inhibition
CCN(CC)c1ccc2cc(-c3nc4ccccc4n3C)c(=O)oc2c1	inconclusive: -77%
CS(=O)(=O)N1N=C(c2ccccc2)CC1c1ccc2c(c1)OCO2 (configuration not stated)	inactive: -27.3%

Additional entries follow.

Structure (SMILES)	activity change (PNC), negative = inhibition
CCOC(=O)c1cnc2c(-c3ccc(Cl)cc3)c(C)nn2c1N	inactive: -8.03%
Cc1ccc(SCCC(=O)NC(C)(C)C)cc1	inconclusive: -39%
CCOc1cccc(-c2nnc3sc(C4CCCCC4)nn23)c1	inconclusive: -65.7%
COc1ccccc1OCCCn1c(=O)oc2ccccc21	inconclusive: -53.5%
COc1ccc2[nH]c3c(NCc4ccco4)ncnc3c2c1	inconclusive: -49.7%
COc1ccc(-c2cc(C(F)(F)F)nc(S(=O)(=O)CCC(=O)N3CCOCC3)n2)cc1	inconclusive: -53.5%
CC(C)c1ccc(NC(=O)C(c2ccc3c(c2)OCO3)N2CCC3(CC2)OCCO3)cc1 (configuration not stated)	inconclusive: -31.8%
Cc1cccc(C(=O)Nc2ccccc2SCC(=O)Nc2ccc(C)c(Cl)c2)c1	inactive: 2.37%
C/C(=N\Nc1ncc(Cl)cc1Cl)c1ccc(OC(F)F)cc1	inconclusive: -57.7%
CC(C)CNC(=S)N1CCC(NC(=O)C23CC4CC(CC(C4)C2)C3)CC1	inconclusive: -58.4%
Cc1[nH]c(-c2ccc3c(c2)OCO3)nc1C(=O)O	inconclusive: -39.2%
Oc1ccc(-c2csc(-c3ccccc3)n2)cc1O	inconclusive: -35.4%
Cc1ccccc1OCC(=O)Nc1sc2c(c1C#N)CCC2	inconclusive: -47.3%
Cc1ccnc(SCc2cc(=O)c(OC(=O)c3cc([N+](=O)[O-])ccc3Cl)co2)n1	inactive: -13.8%
COc1ccc(OC)c(S(=O)(=O)NCCc2ccccc2)c1	inactive: 18.1%
CN=C1c2cc3cc(OC)ccc3n2CCN1Cc1ccccc1	inconclusive: -37.5%
CCOc1nc(NCCN2CCOCC2)nc(NC(C)C)n1	inconclusive: -32%
COc1ccccc1-c1cn[nH]c(=S)n1	inactive: -13.9%
CC(=O)OCCSc1c(-c2ccccc2)c2cc(Cl)ccc2[nH]c1=O	inconclusive: -35.1%
CC(=O)Nc1ccc(S(=O)(=O)N2CCSC2c2ccc(Cl)cc2)cc1 (configuration not stated)	inconclusive: -31.2%
CC1CN(C(=O)CCn2c(=O)oc3ccccc32)CC(C)O1 (configuration not stated)	inconclusive: -58.5%
O=c1c2cnn(-c3ccccc3)c2ncn1Cc1cccc(Cl)c1	active: -108%
O=C(CN1C(=O)C2C3C=CC(C3)C2C1=O)OCC(=O)c1ccccc1 (configuration not stated)	inactive: 5.29%

Grouped by structure: the entries above containing a CF3 group.
Structure (SMILES)	activity change (PNC), negative = inhibition
COc1ccccc1NC(=O)c1nnn(Cc2ccccc2)c1NC(=O)C(F)(F)F	inconclusive: -37.6%
COc1ccc(-c2cc(C(F)(F)F)nc(S(=O)(=O)CCC(=O)N3CCOCC3)n2)cc1	inconclusive: -53.5%

(further entries)

Structure (SMILES)	activity change (PNC), negative = inhibition
COc1ccccc1NC(=O)Cn1cnc2c(oc3ccccc32)c1=O	inactive: -0.387%
COc1ccc(CCNc2nnc(Sc3nnnn3-c3ccccc3)s2)cc1OC	active: -96.5%
CC1C=CCC2C(=O)N(c3ccc(Cl)cc3O)C(=O)C12 (configuration not stated)	inconclusive: -69.3%
O=C(NCCCCCNC(=O)c1ccco1)c1ccco1	inactive: 30.5%
Nn1cnn(Cc2ccccc2)c1=S	inactive: 29.1%
CCn1ncc(C2=NOC(C(=O)Nc3cccc(C(C)=O)c3)C2)c1C (configuration not stated)	inactive: -26.3%
CC(=O)Nc1ccc(-c2nnc(SCc3ccccc3C#N)n2C)cc1	inconclusive: -31.1%
Cc1cccc(OCCCC(=O)NC(C)c2ccccc2)c1 (configuration not stated)	inactive: -5.2%
CC1CC(C)CN(c2nc3c(c(=O)n(C)c(=O)n3C)n2C)C1 (configuration not stated)	inactive: -26.1%
CCN(CC)c1nc2ccccc2nc1C(C#N)C(=O)NCCCOC (configuration not stated)	inconclusive: -63.7%
Cc1ccc(NC(=O)C2(NC(=O)c3ccccn3)CCCCC2)cc1Br	inactive: 25.1%
COc1cc(C(=O)Sc2ccc(C)cc2)cc(OC)c1OC	inconclusive: -44.8%
Cc1onc(-c2ccccc2Cl)c1C(=O)Nc1nc2ccc(S(C)(=O)=O)cc2s1	inconclusive: -35.9%
CCOC(=O)c1c(C)[nH]c(=S)c(C#N)c1-c1ccc(Cl)cc1	active: -108%
O=C(CCCCCn1c(=S)[nH]c2ccc(N3CCOCC3)cc2c1=O)NCc1ccccc1	inconclusive: -69.6%
COC(=O)/C(=C/c1ccc(OC)cc1)NC(=O)c1ccco1	inconclusive: -64.6%
O=C1c2ccccc2C(=O)C12OC2c1cccc2ccccc12 (configuration not stated)	inconclusive: -41.7%
CCN(CC)S(=O)(=O)c1cccc(C(=O)Nc2nncs2)c1	inconclusive: -66.4%
CS(=O)(=O)N(Cc1ccccc1)c1ccc(C(=O)NCCSCc2ccco2)cc1	inconclusive: -53%
CC1=[N+](C)N(c2ccccc2)C(=O)C1N=Cc1ccc(Cl)cc1 (configuration not stated)	inconclusive: -43.2%
Cc1ccc(NC(=O)COC(=O)c2cccc3c2C(=O)c2ccccc2C3=O)c(C)c1	inconclusive: -39.5%
O=c1c2ccccc2nc(COc2ccccc2)n1/N=C/c1c[nH]c2ccccc12	inconclusive: -73.5%
CCOC(=O)C1=C(N)N(c2ccccc2Oc2ccccc2)C(=O)C1	inactive: -18.6%

Reference: PubChem BioAssay AID2417 (National Center for Advancing Translational Sciences (NCATS), 2010)
